Measured values taken from article PMC7819943, “Rice protein-binding microarrays: a tool to detect cis-acting elements near promoter regions in rice”.
This is one part of the list.

biological target: T1, OsSMF1 (Oryza sativa, UniProt Q6ZLB0 1-436); experiment: protein-binding microarray (RPBM); PBS, 2% BSA, 51.3 ng/ul salmon testes DNA, 50 uM zinc acetate, 200 nM TF, 25 C, 1 h; high values mean tight binding; settings: protein: recombinant; tags: N-terminal polyhistidine and DsRed monomer fusion (pET32a); chain copies: 2; label: CyDye5-dUTP incorporated in the synthesized complementary strand; 3' TTTTT single-stranded linker to array surface; dsDNA, one strand shown
T1 sequence: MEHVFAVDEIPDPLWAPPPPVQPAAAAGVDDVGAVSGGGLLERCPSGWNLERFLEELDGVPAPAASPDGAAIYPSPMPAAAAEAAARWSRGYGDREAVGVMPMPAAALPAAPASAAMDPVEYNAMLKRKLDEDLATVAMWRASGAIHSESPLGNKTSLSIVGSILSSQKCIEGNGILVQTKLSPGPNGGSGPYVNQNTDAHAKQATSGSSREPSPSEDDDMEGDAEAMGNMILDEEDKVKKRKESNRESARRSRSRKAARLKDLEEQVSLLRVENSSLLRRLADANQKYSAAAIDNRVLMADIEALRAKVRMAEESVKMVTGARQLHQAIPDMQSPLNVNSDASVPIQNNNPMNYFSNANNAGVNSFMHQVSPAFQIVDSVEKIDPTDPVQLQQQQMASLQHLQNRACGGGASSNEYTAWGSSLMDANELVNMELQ
How it was run: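 Binding signal is reported as fluorescence intensity per feature (arbitrary units) from an Axon 4000B scanner. Incubation used 200 nM of each Ni–NTA-purified, N-terminally polyhistidine- and DsRed-fused transcription factor from E. coli BL21-CodonPlus on a double-stranded custom Agilent array for 1 h at 25 °C, with 50 µM zinc acetate in the buffer, followed by washing.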

Row | Sequence | binding signal
1 | GCCCACTCGTCGGTGTCCCGTGTCCGCCACGCTCTCGCCACGGAGTCACCTAGTGCAG | 3270 fluorescence intensity (a.u.)
2 | TGGATCGTGTGGGTGACTCGGAGCTGAGCTGGGACCCACTCGGAGTCACCTAGTGCAG | 3390 fluorescence intensity (a.u.)
3 | ATTTTCGTCGCGTCAACTTATATACGAAAGTTAATTAATGCGGAGTCACCTAGTGCAG | 3290 fluorescence intensity (a.u.)
4 | AAAGATTGCCGAGTTTAATTGCAATCAATTACGGGAAGATCGGAGTCACCTAGTGCAG | 33200 fluorescence intensity (a.u.)
5 | TTTGTTTCGTTGTGTTAGAATATGTCATATTTCTTCATTACGGAGTCACCTAGTGCAG | 3280 fluorescence intensity (a.u.)
6 | AGGTTCTTGACTCACCAGACCCATTTGTTGCCTCAGCCACCGGAGTCACCTAGTGCAG | 4350 fluorescence intensity (a.u.)
7 | AGCGCGGGGCGGCGTTCGCGTCGCGCCCGCGCGGCGTCAGCGGAGTCACCTAGTGCAG | 4260 fluorescence intensity (a.u.)
8 | ATATATATATATATATATATGTATGCATATATATGTATTGCGGAGTCACCTAGTGCAG | 3440 fluorescence intensity (a.u.)
9 | CTGCAACGTTTGGAGTTCCGCCATCAGACAAATTCCACCCCGGAGTCACCTAGTGCAG | 3210 fluorescence intensity (a.u.)
10 | TGTATTTCCCACACAGATCCACGGCAACTGTCAGCAACATCGGAGTCACCTAGTGCAG | 4290 fluorescence intensity (a.u.)
11 | CGCACCGACCAAGCTGAGTGACGCGTCACGGCCCAGTTGACGGAGTCACCTAGTGCAG | 5740 fluorescence intensity (a.u.)
12 | GCCACACGATTTCTTCTGTGACGTGTGGCGTGAGATAACTCGGAGTCACCTAGTGCAG | 4160 fluorescence intensity (a.u.)
13 | TAGTAACTATAAATCAATGGTTAAGATTTCTTTCAGTCCTCGGAGTCACCTAGTGCAG | 3620 fluorescence intensity (a.u.)
14 | CGAAATCTTTCCGTCACGGGCCATTTACGTGGCAGATCTTCGGAGTCACCTAGTGCAG | 12300 fluorescence intensity (a.u.)
15 | TCGCAACAACAAGAATGATGATGGCATGACGAAAATGCTACGGAGTCACCTAGTGCAG | 3570 fluorescence intensity (a.u.)
16 | AATACTCTGCAGTTCAGTCACGGGCAGAGTACACAGCTTACGGAGTCACCTAGTGCAG | 20900 fluorescence intensity (a.u.)
17 | TAAGCAAGCTAGCTTGATGCAGCAGCAAGAAAGCAATAATCGGAGTCACCTAGTGCAG | 26200 fluorescence intensity (a.u.)
18 | TTTGATACCTATCAGCTGGTCAGCTCTGATCTTCCTGTTTCGGAGTCACCTAGTGCAG | 3720 fluorescence intensity (a.u.)
19 | TGTCAACCACACGTTTCTCTGACTGTACATCAGAGAGTGTCGGAGTCACCTAGTGCAG | 11500 fluorescence intensity (a.u.)
20 | TGGGCCGCGAAATTGGCAAGCGGCCAAGCGGGTGCGTGAGCGGAGTCACCTAGTGCAG | 3200 fluorescence intensity (a.u.)
21 | GAATATGTACGTGTGACTCCATCAGCAGTCACCTAGCCAGCGGAGTCACCTAGTGCAG | 4360 fluorescence intensity (a.u.)
22 | CCTTGTTATAAGCCACACCACATCACACACCCCTCTCATTCGGAGTCACCTAGTGCAG | 4520 fluorescence intensity (a.u.)
23 | TGGATGGAGGAGCGATCACCCACCCAATAGGAATTCCGGACGGAGTCACCTAGTGCAG | 6100 fluorescence intensity (a.u.)
24 | ACTCAGCCTCTCCAACGACGATGACGACACCGGCCAACATCGGAGTCACCTAGTGCAG | 3880 fluorescence intensity (a.u.)
25 | AGCTCCTCCTTGGACGCGGCGATGACGCGCTTGCAGTCGTCGGAGTCACCTAGTGCAG | 5680 fluorescence intensity (a.u.)
26 | CCAGAGGCCGCGAGCGGTGGCATCGTCATCGCAATATCAACGGAGTCACCTAGTGCAG | 3760 fluorescence intensity (a.u.)
27 | TGCCGTGGGATGGGGTTGCGGGAGGAGGAGGGTGCTACTACGGAGTCACCTAGTGCAG | 3380 fluorescence intensity (a.u.)

Single values from the results shown.
For binding signal, GCCACACGATTTCTTCTGTGACGTGTGGCGTGAGATAACTCGGAGTCACCTAGTGCAG has the entry 4160 fluorescence intensity (a.u.)
For binding signal, AATACTCTGCAGTTCAGTCACGGGCAGAGTACACAGCTTACGGAGTCACCTAGTGCAG has the entry 20900 fluorescence intensity (a.u.)
For binding signal, GCCCACTCGTCGGTGTCCCGTGTCCGCCACGCTCTCGCCACGGAGTCACCTAGTGCAG has the entry 3270 fluorescence intensity (a.u.)
For binding signal, CGAAATCTTTCCGTCACGGGCCATTTACGTGGCAGATCTTCGGAGTCACCTAGTGCAG has the entry 12300 fluorescence intensity (a.u.)

(cont.)

Row | Sequence | binding signal
28 | TCTCCAGCGTCACCACGGCACGCAGTCACGCACCGCCCTCCGGAGTCACCTAGTGCAG | 5450 fluorescence intensity (a.u.)
29 | TAGAGGCATTTCGGTATGGGCATATGTGAGGAAAATTGGGCGGAGTCACCTAGTGCAG | 3450 fluorescence intensity (a.u.)
30 | CTTCGCCGTCTGACCCGTCAGCCACCATGCGCCGTCTCCGCGGAGTCACCTAGTGCAG | 4500 fluorescence intensity (a.u.)
31 | ATAAGTTATACTTAAAATACTTTTGATAATAAAACAAATCCGGAGTCACCTAGTGCAG | 20400 fluorescence intensity (a.u.)
32 | ATCCAAGCCACGTCACCCTGATCTATCTAAACCCACCTTTCGGAGTCACCTAGTGCAG | 27500 fluorescence intensity (a.u.)
33 | TCGTCGATGTCACCGCCACCACCGTCGTCATCGCTGCCTTCGGAGTCACCTAGTGCAG | 3820 fluorescence intensity (a.u.)
34 | TGCATCAATGGTGGCTTGGCTTTCATGTCGCTCCTTGTCGCGGAGTCACCTAGTGCAG | 3140 fluorescence intensity (a.u.)
35 | TAAAAGCCAAGCACCATCTCGAAGTCTTCTTCCTCCTCCACGGAGTCACCTAGTGCAG | 12500 fluorescence intensity (a.u.)
36 | GCTCGCCGTCTGCACGACCGTCGACTCGACGCGGTTGCTCCGGAGTCACCTAGTGCAG | 36100 fluorescence intensity (a.u.)
37 | AGCCGTCCTCGTACGTACATAAATTAGCTGGCGAATCTGGCGGAGTCACCTAGTGCAG | 3360 fluorescence intensity (a.u.)
38 | CGTGCTGTACTGCGTTACATGCAGCGTGACACGCTTGACCCGGAGTCACCTAGTGCAG | 3160 fluorescence intensity (a.u.)
39 | TAAGTACCAAAATGCCCCTAGACACGTATTGTTCTTCCTCCGGAGTCACCTAGTGCAG | 6390 fluorescence intensity (a.u.)
40 | ACCTCGCCGCGCACCCCTCCCCTCCCCATGTCCTCGCCTTCGGAGTCACCTAGTGCAG | 4060 fluorescence intensity (a.u.)
41 | CATGGCAAAATCGTGTCGACATATATGACCTGGGCACCCCCGGAGTCACCTAGTGCAG | 4450 fluorescence intensity (a.u.)
42 | GTTTCCGGGGTGACATGTGCATATATCACTTTTGGTTCCGCGGAGTCACCTAGTGCAG | 3900 fluorescence intensity (a.u.)
43 | TAAACAATATATACCAATTTAATCAACGGTCGAGAAATACCGGAGTCACCTAGTGCAG | 38300 fluorescence intensity (a.u.)
44 | TAATCATGGGCTTTTAATTCGGCCCAGTTAGGCAAATTTGCGGAGTCACCTAGTGCAG | 3200 fluorescence intensity (a.u.)
45 | TTTAGGGCTGATATAAGCTAATGTTGTTGTGAGTCATGGGCGGAGTCACCTAGTGCAG | 7420 fluorescence intensity (a.u.)
46 | TGAAGCAAGCACCCACATTTCACCATGACACCACCACCACCGGAGTCACCTAGTGCAG | 3680 fluorescence intensity (a.u.)
47 | AATGGATCCTGGCCGGCCGTGTACATACGTCATAGGCCATCGGAGTCACCTAGTGCAG | 4690 fluorescence intensity (a.u.)
48 | GCATTGGCGGGCCGCGCCGCGCGTGTAGACGTGCGGTCAGCGGAGTCACCTAGTGCAG | 3160 fluorescence intensity (a.u.)
49 | GCGCCAGTAGCCACGGTGGCATCCAGAAGTCCACAGCGAGCGGAGTCACCTAGTGCAG | 3640 fluorescence intensity (a.u.)
50 | TTTATTCTATTGTTTTGTTTATTTTCCTATGAGTCATCAGCGGAGTCACCTAGTGCAG | 6600 fluorescence intensity (a.u.)
51 | GCTTCCCCTCTACTCCTCTCCACGTTAGTTAGAGGGTACACGGAGTCACCTAGTGCAG | 3520 fluorescence intensity (a.u.)
52 | GGCGTGACAGTAAGGGAAGGGAATGAGAGATCCTATCATCCGGAGTCACCTAGTGCAG | 11300 fluorescence intensity (a.u.)
53 | CTTCAAGCTACCTTGCTTCTCCAGATCACTCTCTTTCAGCCGGAGTCACCTAGTGCAG | 4180 fluorescence intensity (a.u.)
54 | AGAAAATATAGTGCCACGTTATATATCAGTCCATCAACACCGGAGTCACCTAGTGCAG | 5780 fluorescence intensity (a.u.)
